What all share (test): pull-down; purified MBP fusion proteins (5 ug) on amylose magnetic beads, washed with CHAPS lysis buffer + 1 M NaCl; incubated overnight at 4°C with S2R+ cell lysates expressing the kinase in CHAPS lysis buffer; six washes; western blot (NbVHH05-hIgG or anti-HA); only the target purified
(A western blot detects proteins with antibodies after separation by electrophoresis.)

Chains of the proteins cited; added tags and fusions are not shown. Lines headed by an entry give the natural chain unless they say otherwise; changes in a name come on top.
UniProt P02835: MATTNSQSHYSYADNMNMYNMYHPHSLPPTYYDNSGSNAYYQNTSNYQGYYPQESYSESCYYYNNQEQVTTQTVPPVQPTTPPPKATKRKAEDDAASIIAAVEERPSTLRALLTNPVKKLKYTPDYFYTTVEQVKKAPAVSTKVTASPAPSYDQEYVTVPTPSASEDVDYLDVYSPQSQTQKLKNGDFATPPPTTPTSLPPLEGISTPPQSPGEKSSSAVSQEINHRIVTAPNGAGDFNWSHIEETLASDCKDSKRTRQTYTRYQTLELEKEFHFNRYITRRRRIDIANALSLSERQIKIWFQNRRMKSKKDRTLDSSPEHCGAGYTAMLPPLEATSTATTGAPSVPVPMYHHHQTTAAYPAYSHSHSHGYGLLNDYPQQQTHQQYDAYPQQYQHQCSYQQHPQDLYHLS
UniProt P09082: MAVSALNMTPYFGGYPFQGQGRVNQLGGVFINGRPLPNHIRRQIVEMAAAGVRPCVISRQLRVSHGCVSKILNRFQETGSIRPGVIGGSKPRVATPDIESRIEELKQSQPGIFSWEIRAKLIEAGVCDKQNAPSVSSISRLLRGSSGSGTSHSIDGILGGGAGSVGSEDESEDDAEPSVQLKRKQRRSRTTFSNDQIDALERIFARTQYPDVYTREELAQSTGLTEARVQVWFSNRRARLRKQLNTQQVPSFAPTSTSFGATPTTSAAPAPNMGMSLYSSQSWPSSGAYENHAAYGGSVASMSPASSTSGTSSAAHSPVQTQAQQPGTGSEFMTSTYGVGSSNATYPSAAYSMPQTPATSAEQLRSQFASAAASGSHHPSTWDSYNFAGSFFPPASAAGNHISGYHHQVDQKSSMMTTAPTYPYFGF

Test [1] deals with MBP-tagged Fushi tarazu homeodomain fragment, wild type (Drosophila melanogaster) (UniProt P02835).
The target in test [2] is MBP-tagged Gooseberry homeodomain fragment, 5A mutant (Drosophila melanogaster).
The target of test [3] is MBP-tagged Gooseberry homeodomain fragment, wild type (Drosophila melanogaster) (UniProt P09082).

Results are given in words; binding and its absence hold for the method and conditions named. In cells and extracts the contact can be indirect. For part of these data: Binding calls can cover weak binding; strength is not graded here.

For one molecule, binding results are on record in publication doi:10.1101/2025.10.10.681672.

B1: aPKC-VHH05-3xHA (enzyme, UniProt A1Z9X0 1-606)
chain: MQKMPSQILNDGSSVSLNSASMNMANTPNSITVKTAYNGQIIITTINKNISYEELCYEIRNICRFPLDQPFTIKWVDEENDPCTISTKMELDEAIRLYEMNFDSQLVIHVFPNVPQAPGLSCDGEDRSIYRRGARRWRKLYRVNGHIFQAKRFNRRAFCAYCQDRIWGLGRQGFKCIQCKLLVHKKCHKLVQKHCTDQPEPLVKERAEESSDPIPVPLPPLPYEAMSGGAEACETHDHAHIVAPPPPEDPLEPGTQRQYSLNDFELIRVIGRGSYAKVLMVELRRTRRIYAMKVIKKALVTDDEDIDWVQTEKHVFETASNHPFLVGLHSCFQTPSRLFFVIEFVRGGDLMYHMQRQRRLPEEHARFYAAEISLALNFLHEKGIIYRDLKLDNVLLDHEGHIKLTDYGMCKEGIRPGDTTSTFCGTPNYIAPEILRGEDYGFSVDWWALGVLLYEMLAGRSPFDLAGASENPDQNTEDYLFQVILEKTIRIPRSLSVRAASVLKGFLNKNPADRLGCHRESAFMDIVSHPFFKNMDWELLERKQVTPPFKPRLDSDRDLANFPPEFTGEAVQLTPDDDHVIDNIDQSEFEGFEYVNPLLMSLEDCV
In the case of B1, the binding result was “binds” in test [1], “no binding” in test [2] and “binds” in test [3].
